Primary screen of a compound library

By UniProt entry, the sequences of proteins in these tests, tags left out.
UniProt E9BF75, entry or part of it: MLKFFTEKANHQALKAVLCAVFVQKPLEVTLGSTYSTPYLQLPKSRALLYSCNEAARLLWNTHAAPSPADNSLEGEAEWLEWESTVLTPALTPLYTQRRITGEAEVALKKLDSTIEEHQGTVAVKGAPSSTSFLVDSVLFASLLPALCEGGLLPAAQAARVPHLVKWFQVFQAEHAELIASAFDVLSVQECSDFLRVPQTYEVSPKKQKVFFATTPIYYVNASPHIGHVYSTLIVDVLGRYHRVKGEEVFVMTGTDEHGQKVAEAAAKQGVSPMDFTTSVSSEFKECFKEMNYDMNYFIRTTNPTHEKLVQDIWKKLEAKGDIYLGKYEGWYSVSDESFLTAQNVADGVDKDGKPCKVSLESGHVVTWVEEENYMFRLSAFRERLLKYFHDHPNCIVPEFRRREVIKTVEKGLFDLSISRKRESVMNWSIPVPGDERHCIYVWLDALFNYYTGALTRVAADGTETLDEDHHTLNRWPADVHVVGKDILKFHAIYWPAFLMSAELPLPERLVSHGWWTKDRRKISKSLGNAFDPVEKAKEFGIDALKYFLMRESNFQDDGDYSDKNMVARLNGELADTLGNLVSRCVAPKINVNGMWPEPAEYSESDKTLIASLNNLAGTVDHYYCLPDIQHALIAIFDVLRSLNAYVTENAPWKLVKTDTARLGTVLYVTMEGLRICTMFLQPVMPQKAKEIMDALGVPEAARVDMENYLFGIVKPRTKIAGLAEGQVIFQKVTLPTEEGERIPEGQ

Source: ChEMBL document CHEMBL3988442, “University of Dundee, Small-Polar-MMV Screening Library” (2021).

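Primary screen of methionyl-tRNA synthetase; the read-out is not stated. Target: Methionyl-tRNA synthetase (putative), Leishmania donovani (UniProt E9BF75). The test concentration is not given. The values are filed as inhibition. Of about 68,000 compounds tested this way, about 24 (0.035%) reached 50% or more in at least one test.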

Results are percentages, as filed.
The controls that fix the scale are not given in the record; negative values are as filed.
The compounds are a random part of those screened.

| # | compound | Inhibition |
|---|---|---|
| 1 | `CCc1n[nH]c(C2CN(C(=O)c3cnc(C)s3)CCO2)n1` (stereo not given) | 7.981 |
| 2 | `Cc1ccc(NC2CCN(C(=O)c3cc4c(s3)CCC4)CC2)nn1` | 22.83 |
| 3 | `CC(=O)N1CCCC2(CCN(c3nncs3)C2)C1` (stereo not given) | 15.13 |
| 4 | `COc1ccc(C(C)(C)C(=O)NCc2n[nH]c(=O)[nH]2)cc1` | 1.37 |
| 5 | `CS(=O)(=O)N1CCC(C(=O)Nc2nnc(C(F)(F)F)[nH]2)CC1` | 5.292 |
| 6 | `Cc1ccccc1CN1CCC[C@H]1c1nc(-c2cncnc2N)no1` | 10.51 |
| 7 | `Cc1cc(O)c(OCC(=O)/N=c2\[nH]c(C)cs2)cn1` | 19.26 |
| 8 | `Cc1cnn(C2CCCN(C(=O)c3ccc(NC4CC4)nc3)C2)c1` (stereo not given) | 20.23 |
| 9 | `CCN1Cc2c(C(=O)NCC3CC3)ncn2-c2ccccc2S1(=O)=O` | 5.5 |
| 10 | `CCC(CO)N(Cc1ccccc1C)Cc1ccccc1C(=O)O` (stereo not given) | 8.933 |
| 11 | `CC1(C)CN(S(=O)(=O)N2CCOCC2)CC1c1ccccc1` (stereo not given) | 8.04 |
| 12 | `O=C([C@@H]1CSCN1)N1CC2(CCNCC2)c2cc(Cl)ccc21` | 3.297 |
| 13 | `Cn1nccc1CNS(=O)(=O)c1cc(F)ccc1Br` | 14.21 |
| 14 | `CC(C)CN1CCn2nc(CNc3ncnc4[nH]cnc34)cc2C1` | 7.107 |
| 15 | `CC1CN(C)c2ccccc2CN1C(=O)c1cnsn1` (stereo not given) | 15.72 |
| 16 | `Cc1cc(NC(=O)c2ccc(N3CCOCC3)cc2)[nH]n1` | 8.6 |
| 17 | `O=C(c1cnccn1)N1CC2(CCN(Cc3ccsc3)C2)C1` | 17.26 |
| 18 | `COc1c(C)cnc(CN(C)C(=O)c2ccccc2O)c1C` | 13.4 |
| 19 | `Cc1noc(C)c1CN1C(=O)[C@H]2CC[C@@H]1CN(Cc1cscn1)C2` | 12.36 |
| 20 | `CC(C)C(=O)NS(=O)(=O)CCc1ccccc1` | 12.1 |
| 21 | `Cc1occc1C(=O)NCCOc1ccc(C(F)(F)F)cn1` | 4.511 |
| 22 | `COc1c(CNCCNC(=O)c2ccccc2F)c(C)nn1C` | 19.55 |
| 23 | `Cc1ccc(S(=O)(=O)Cc2noc([C@@H]3C[C@@H](O)CN3)n2)cc1` | 3.846 |
| 24 | `O=C([C@H]1COC[C@H]2CN(C3CCCC3)C[C@H]21)N1CCCO1` | 2.932 |
| 25 | `N#Cc1ccc(N2CCC3(CC2)CC(N2CCOCC2)CO3)cc1` (stereo not given) | 12.57 |
| 26 | `Cc1cc(C)n(C2CCCN(C(=O)c3ccc(F)c(F)c3)C2)n1` (stereo not given) | 5.722 |
| 27 | `CNC(=O)CN1CCC(NC(=O)Cn2cc(C)c3ccccc32)CC1` | 20.6 |
| 28 | `Cc1nc2c(c(=O)[nH]1)CN(Cc1ccc3c(c1)CCCN3C)CC2` | 12.26 |
| 29 | `O=C(Nc1cnccn1)[C@H]1COC[C@H]2CN(C3CCCC3)C[C@H]21` | 9.524 |
| 30 | `COCCCN1CC2(CCC1=O)CCN(Cc1cc(C(C)C)no1)CC2` | -2.007 |
| 31 | `CN(C)Cc1nc2c(o1)CN(C(=O)c1ccncc1F)C2` | 12.89 |
| 32 | `CC(C)(C)c1cc(C[C@H]2CNCC[C@H]2CC(=O)NCc2cccs2)no1` | 8.143 |
| 33 | `Cc1cc(C)n(CC(=O)N2CCCC2c2cc3cccnc3[nH]2)n1` (stereo not given) | 10.11 |
| 34 | `OCCNc1cc(-c2ccccc2)ncn1` | 9.951 |
| 35 | `Cc1ccc(=O)n(CC2(O)CCN(Cc3ccsc3)CC2)n1` | 13.36 |
| 36 | `CC(C)CN1CCC(NC(=O)c2ccc(Cl)cc2Cl)CC1` | 16.15 |
| 37 | `O=C(Cn1cc(I)cn1)N1CCOCC1` | 11.39 |
| 38 | `Cc1cc(C(C)NC(=O)CCn2nnc3ccccc3c2=O)c(C)o1` (stereo not given) | 4.861 |
| 39 | `CC(C)C(=O)NCCc1cc2nc(-c3ccncc3)ccn2n1` | 6.562 |
| 40 | `CCN(CC)CCSc1ncnc2[nH]ncc12` | 19.05 |
| 41 | `O=S1(=O)CCN(Cc2cccnc2)[C@H]2CCN(c3ncccn3)CC[C@H]21` | 6.667 |
| 42 | `Cc1ccc(S(C)(=O)=O)cc1C(=O)N(C)Cc1ccco1` | 12.5 |
| 43 | `O=C(c1ncccn1)N1C[C@H]2CCC[C@@]2(COCc2ccncc2)C1` | 11.76 |
| 44 | `Cc1ccsc1CNCCCOc1ccccn1` | -9.181 |
| 45 | `Cc1c[nH]nc1C1CCN(C(=O)C2CCC2)CC1` | 10.76 |
| 46 | `Cc1n[nH]c(C2CN(Cc3csc(C4CC4)n3)CCO2)n1` (stereo not given) | 16.76 |
| 47 | `O=C(c1cccnc1)N1CCC2(CC1)CCN(Cc1ccccn1)C2=O` | 3.75 |
| 48 | `NC(=O)c1cn[nH]c1C1CCCN1C(=O)COc1ccccc1` (stereo not given) | 11.55 |
| 49 | `CCOCC(O)CN1CCN(C(=O)c2cc(C)ccc2OC)CC1` (stereo not given) | 17.05 |
| 50 | `COc1cc(I)c(Cl)cc1C(=O)N(C)CC(C)(C)O` | 4.665 |
| 51 | `CN(C)c1cc(C(=O)N2CCCC2)ccn1` | 8.229 |
| 52 | `Cc1ccc(CN2CCc3ncnc(OC(C)C)c3CC2)s1` | 12.7 |
| 53 | `CCNc1cc2c(nn1)CCN(C(=O)Cc1c(C)nn(C)c1C)C2` | 9.777 |
| 54 | `OC1(c2cn(CC3CCN(C4CCSC4)CC3)nn2)CCCC1` (stereo not given) | -0.9804 |
| 55 | `O=C(c1cccc2c1OCO2)N1CCCCC1Cn1cccn1` (stereo not given) | 5.842 |
| 56 | `CCN(C)C1COC2(CCN(C(=O)c3cccc(Cl)c3)CC2)C1` (stereo not given) | 10 |
| 57 | `Cc1c(Br)c(C(F)(F)F)nn1C(C)C(=O)O` (stereo not given) | 14.45 |
| 58 | `COc1cccc2c1OCCCN(c1nc(N)nc3c1CCNC3)C2` | 31.94 |
| 59 | `COc1cc2c(cc1OC)CN(C(=O)NCC1CCCO1)CC2` (stereo not given) | 16.51 |
| 60 | `CN1Cc2c(C(=O)NC3CCCCC3)ncn2-c2ccccc2S1(=O)=O` | 17.18 |
| 61 | `Cc1nnc2n1CCN(C(=O)CN1C(=O)CSc3ccccc31)C2` | 8.696 |
| 62 | `COCCCN1Cc2cccc(NC(=O)c3cc(F)cc(F)c3)c2C1` | 5.305 |
| 63 | `CCN1CC[C@@]2(C(=O)N3CCOCC3)CCN(C(=O)CC(C)C)CC[C@@H]12` | 2.778 |
| 64 | `Cc1cccc(NC(=O)NCCCn2nc3ccccn3c2=O)c1C` | 8.497 |
| 65 | `COCCN(Cc1ccc(F)cc1Cl)C(=O)c1cccc[n+]1[O-]` | 15.93 |
| 66 | `CCn1cc(-c2nccnc2C2CCCN(C(C)=O)C2)cn1` (stereo not given) | 20.89 |
| 67 | `Cc1cnn(CC2CCCCN2Cc2cnc(C)s2)c1` (stereo not given) | 15.79 |
| 68 | `O=C(NCCCO)c1cnc(-c2ccccc2)nc1O` | 16.48 |
| 69 | `Cc1nc(C(=O)N2CCCC(c3nc(C(C)C)cs3)C2)c[nH]1` (stereo not given) | -2.518 |
| 70 | `Cc1cc(-c2cncnc2)nc(C2CCCN2S(C)(=O)=O)n1` (stereo not given) | 15.75 |
| 71 | `CCC(NC(=O)NCc1cccc(N(C)C)n1)c1ccccc1OC` (stereo not given) | 24.36 |
| 72 | `Cn1ccc(C(=O)N2CCCC2c2cc(CCO)[nH]n2)n1` (stereo not given) | 6.395 |
| 73 | `Cc1cc(C(F)(F)F)nn1CC(C)C(=O)Nc1cccnc1` (stereo not given) | -15.33 |
| 74 | `CCCc1nc(CN(C)CCOc2ccccc2)cs1` | 15.65 |
| 75 | `CC(C)CCN1C[C@H]2C[C@H](C(=O)NCc3ccccc3)[C@@H](C1)O2` | 5.882 |
| 76 | `O=C1CN(C(=O)C2CN(c3cccc(F)c3)CCO2)CCN1` (stereo not given) | 5.28 |
| 77 | `COCCN1CCC2(CC1)CC(COC)N(c1ncccn1)C2` (stereo not given) | 12.6 |
| 78 | `O=C1N(C2CCCCC2)CCCC12CCN(S(=O)(=O)c1cccnc1)C2` (stereo not given) | 14.25 |
| 79 | `CCCc1cnc(C)nc1N1CCC(Cn2cc(CO)nn2)CC1` | 9.779 |
| 80 | `C=Cn1cc(CN2CCC(c3ncc(Cl)cc3S(C)(=O)=O)CC2)c(C)n1` | 15.12 |
| 81 | `Cc1cccc(C)c1CCNC(=O)N1CCCC2(C1)OCCO2` | -1.337 |
| 82 | `CN1CCCC1CNC(=O)CCOc1ccc(Br)cc1` (stereo not given) | 18.03 |

The first 10 entries again:

* CCc1n[nH]c(C2CN(C(=O)c3cnc(C)s3)CCO2)n1 (stereo not given) : 7.981%
* Cc1ccc(NC2CCN(C(=O)c3cc4c(s3)CCC4)CC2)nn1 : 22.83%
* CC(=O)N1CCCC2(CCN(c3nncs3)C2)C1 (stereo not given) : 15.13%
* COc1ccc(C(C)(C)C(=O)NCc2n[nH]c(=O)[nH]2)cc1 : 1.37%
* CS(=O)(=O)N1CCC(C(=O)Nc2nnc(C(F)(F)F)[nH]2)CC1 : 5.292%
* Cc1ccccc1CN1CCC[C@H]1c1nc(-c2cncnc2N)no1 : 10.51%
* Cc1cc(O)c(OCC(=O)/N=c2\[nH]c(C)cs2)cn1 : 19.26%
* Cc1cnn(C2CCCN(C(=O)c3ccc(NC4CC4)nc3)C2)c1 (stereo not given) : 20.23%
* CCN1Cc2c(C(=O)NCC3CC3)ncn2-c2ccccc2S1(=O)=O : 5.5%
* CCC(CO)N(Cc1ccccc1C)Cc1ccccc1C(=O)O (stereo not given) : 8.933%